Results reported in PubChem BioAssay AID206 (DTP/NCI, 2004).
The list does not hold the whole screen: its compounds were picked by chemical class. Other doses and runs of a compound may be missing. T/C gives the treated animals as a percentage of the vehicle group. Schedule codes are those of the source, taken here to give the interval after Q, in days (D) or hours (H), and the number of doses after X.

Test system: nude mice, HT29 intrarenal xenograft, tumor weight T/C
Test: NCI In Vivo Anticancer Drug Screen. Data for tumor model HT29;CX-1 Human Adenocarcinoma (MER+) (intrarenal inoculation) in NU/NU Swiss (nude) mice
Settings: T/C endpoint: mean tumor weight change, schedule: Q01DX010 (sc), vehicle: saline, evaluated on day 20, higher T/C = larger tumour
Procedure: The antitumor activity of compounds was measured in mice bearing transplantable tumors. Survival or tumor size were measured and the results are expressed as the measurement made in the treated group (T) divided by the measurement made in the vehicle treated control group (C). The tumor model used in this assay is HT29;CX-1 Human Adenocarcinoma (MER+) (intrarenal inoculation) in NU/NU Swiss (nude) mice

CN(CCCl)CCCl was tested. Which T/C (dose: 0.13 mg/kg/injection) did it give?
The T/C was 129 % of control.

What about the T/C (dose: 0.25 mg/kg/injection) of the same molecule?
Its T/C is 75 % of control.

And the T/C (dose: 0.5 mg/kg/injection)?
Its T/C is 107 % of control.
